In PubChem BioAssay AID1259415 (National Center for Advancing Translational Sciences (NCATS), 2018):
The campaign covered roughly 410,000 compounds. About 18,000 (4.4%) were called active. Inconclusive results, whose numbers are uncertain, are shown with a selection of clear calls. No stated cut-off is given here; in the data, active means activity change below about -60%; inconclusive means no clear call, values can overlap the other calls; inactive means above about -39%.

Test: qHTS Assay for inhibitors of the human cytomegalovirus (HCMV)
Details: HFF cells, HCMV-luciferase reporter, 72 h; at 57.5 µM; stronger effect = lower value
Description: NCGC Assay Overview: Infection with human cytomegalovirus (HCMV) continues to pose significant threats for pregnant women and immunocompromised hosts. HCMV causes serious morbidity and mortality in transplant recipients, and congenital HCMV is the leading infectious cause of mental retardation and deafness in children. In the 1990s, the annual costs associated with the disease burden of congenital CMV were estimated at around $2 billion. A HCMV vaccine is not available yet and HCMV therapies result in intolerable side effects and emergence of drug resistant viruses. […] Towards this goal we have developed and characterized a luciferase HCMV reporter that was initially used in 96 well plates and then optimized to 1536-well plates for utilization in screening of the MLSMR collection, the NGCG diversity collection and the NCGC Pharmaceutical Collection of approved and investigational drugs.
NCGC Assay Protocol Summary:
This is a cell-based assay for HCMV inhibition in HFFs cells. The screening used 2 compound doses and the HCMV-luciferase at MOI of 1 PFU/cell. Cells were treated and infected with HCMV. At 72 h post infection cell lysates were collected and luciferase activity was determined using the Glomax-Multi + Detection System (Promega, Madison, WI). Data were normalized to the controls for basal activity (buffer only) and known HCMV inhibitors Salinmoycin.
1536-well assay protocol for the assay:
(1) Add 3 ul CMV/HFF cell culture. 1000 cells/well in DMEM nirmal media.
(2) Incubate 16 hr at 37C.
(3) Add 23 nl control compound, 10uM of Salinomycin.
(4) Add 23 nl compounds in DMSO solution.
(5) Add 3 ul CMV suspension. Final 1 puf/ul, Virus stock 2000pfu/ul
(6) Incubate 72 hrs at 37C.
(7) Add 4 ul OneGlo Luc Reagent.
(8) Incubate 5 min at room temperature.
On the % scale 0 is the no-effect control and ±100 the full control effect.

Row | Compound | activity change, negative = inhibition
1 | Cc1ccc(N(C(=O)c2snc(C(N)=O)c2N)C(C(=O)NCC2CCCO2)c2c[nH]c3ccccc23)cc1 (stereo not drawn) | inconclusive: -46.2%
2 | N#CCSc1nc2ccccc2c(=O)n1CCC(=O)NC1CCCCC1 | inconclusive: -46.2%
3 | COC(=O)c1ccc(NS(=O)(=O)c2c(C)nc3sccn3c2=O)cc1 | inconclusive: -42%
4 | COc1cccc(-n2ccnc2SCC(=O)Nc2ccc(Cl)c(Cl)c2)c1 | active: -61.1%
5 | C=CCn1c(SCC(=O)Nc2cccnc2Cl)nnc1-c1ccccc1F | active: -65.4%
6 | CCOC(=O)c1c(C)[nH]c(C)c1S(=O)(=O)NCCc1sccc1C | inconclusive: -44.5%
7 | CC(=O)N(C)CC#CCN1CCCC(CO)C1 (stereo not drawn) | active: -60.7%
8 | O=C(Nc1nc(-c2ccccn2)cs1)c1ccc(-c2ccccc2F)o1 | active: -70.2%
9 | CCN(CC(=O)Nc1c(F)cccc1F)C(=O)Cc1ccc2c(c1)OCCO2 | inconclusive: -59%
10 | Cc1ccc(C(=O)Nc2nc(N)n(-c3ccccc3)n2)cc1 | inactive: 68.4%
11 | CCOC(=O)Cn1nnnc1C(CC)N(Cc1cccs1)Cc1cc2cc(C)ccc2[nH]c1=O (stereo not drawn) | inactive: -4.78%
12 | Cc1cc([N+](=O)[O-])nn1CCCC(=O)Nc1cccc(Cl)c1Cl | inconclusive: -51.1%
13 | CC(=O)c1ccc(N2CCN(C(=O)COc3ccc4ccccc4c3)CC2)cc1 | active: -62%
14 | Cc1cccc(C)c1NC(=O)CSc1ncc2c(n1)-c1ccc(Cl)cc1N(Cc1ccccc1)S2(=O)=O | active: -98.7%
15 | O=C(NCc1ccccc1)C(=O)NCC1OCCN1S(=O)(=O)c1ccc([N+](=O)[O-])cc1 (stereo not drawn) | active: -77.5%
16 | Cc1oc(-c2ccccc2F)nc1CSCC(=O)NCc1ccccc1 | inactive: -14.7%
17 | O=C(Nc1ccc(Br)c2ccccc12)c1ccc2ccccc2c1O | active: -100%
18 | O=C(CCN1C(=O)S/C(=C\c2cccs2)C1=O)NC1=NCCS1 | inconclusive: -44.2%
19 | CCCOc1ccc(/C=C/c2c([N+](=O)[O-])c(=O)n(C)c(=O)n2C)cc1 | inconclusive: -58%
20 | COc1ccccc1CNS(=O)(=O)c1cc(Br)cc2c1N(C(C)=O)C(C)C2 (stereo not drawn) | inactive: -27.7%
21 | O=C1NC(=O)N(c2ccccc2)C1=O | inactive: -7.92%
22 | O=c1c(=O)n(-c2ccccc2)ccn1Cc1cccc(C(F)(F)F)c1 | inconclusive: -44.9%

Row | Compound | activity change, negative = inhibition
23 | C/C(=N\NC(=O)c1cc(O)ccc1O)c1cccc(NC(=O)c2ccc(Cl)cc2)c1 | inactive: 19.1%
24 | O=C(NCc1ccc(F)cc1)c1ccc(CS(=O)Cc2ccc(Cl)cc2)o1 (stereo not drawn) | inactive: -25.6%
25 | Cn1c(Cn2c(=O)sc3ccccc32)nnc1SCc1cccc(F)c1 | inactive: 0.85%
26 | CCOC(=O)c1sc(N)c(C(N)=O)c1C | inconclusive: -40.7%
27 | CCOC(=O)N1CCN(C(=O)c2cc3cc(Cl)ccc3[nH]2)CC1 | inconclusive: -42.1%
28 | Cc1ccc(NCc2ccccc2O)c(C)c1 | inconclusive: -54.5%
29 | Cc1cc(C)c(S(N)(=O)=O)c(C)c1N(C)S(=O)(=O)c1ccccc1 | inconclusive: -43.6%
30 | CC1CCC(Nc2nnnn2-c2ccccc2)CC1 (stereo not drawn) | inconclusive: -46%
31 | COc1cc(CCC(=O)Nc2cc(Cl)ccc2N2CCN(C)CC2)cc(OC)c1OC | inactive: 9.55%
32 | CCOc1ccc(/C=C2\SC(=S)N(NS(=O)(=O)c3ccc(C)cc3)C2=O)cc1OC | inconclusive: -40.4%
33 | CC(NC(=O)CCc1ccccc1)c1cc2c(cc1Cl)OCCO2 (stereo not drawn) | inconclusive: -44.3%
34 | O=C(COc1ccc(C(=S)N2CCCC2)cc1)Nc1ccccc1C(F)(F)F | active: -65.4%
35 | O=C(CN1CCC(C(=O)c2ccc(F)cc2)CC1)Nc1ccccc1 | inconclusive: -52.5%
36 | Cc1ccccc1[C@@H]1C(C#N)=C(N)S[C@H]1C(=O)c1ccccc1 | inconclusive: -59%
37 | Cc1cccc(-n2c(Cc3ccccc3)nnc2SCc2ccc([N+](=O)[O-])cc2)c1 | active: -70%
38 | CCc1ccc(-n2c(SCc3ccccc3C)nc3[nH]ncc3c2=O)cc1 | inconclusive: -55.7%
39 | Cc1ccc(N/C(N)=N/c2nc(C)cc(N3CCCCC3)n2)c(C)c1 | inconclusive: -50.4%
40 | S=C(NCCc1ccccc1)Nc1ccccc1 | inconclusive: -53.1%
41 | Cc1cc(C)cc(NC(=O)c2ccc(S(=O)(=O)NCc3cccnc3)cc2)c1 | inconclusive: -45.9%
42 | O=C(Nc1ccc2c(c1)C(=O)OC2)Nc1cccc2ccccc12 | inconclusive: -40.6%
43 | Cc1ccc(S(=O)(=O)N2CCOCC2)cc1C(=O)Nc1ccc(S(=O)(=O)Nc2nccs2)cc1 | inconclusive: -45.8%

4 consecutive records from above, for reference:
Row | Compound | activity change, negative = inhibition
10 | Cc1ccc(C(=O)Nc2nc(N)n(-c3ccccc3)n2)cc1 | inactive: 68.4%
11 | CCOC(=O)Cn1nnnc1C(CC)N(Cc1cccs1)Cc1cc2cc(C)ccc2[nH]c1=O (stereo not drawn) | inactive: -4.78%
12 | Cc1cc([N+](=O)[O-])nn1CCCC(=O)Nc1cccc(Cl)c1Cl | inconclusive: -51.1%
13 | CC(=O)c1ccc(N2CCN(C(=O)COc3ccc4ccccc4c3)CC2)cc1 | active: -62%
